Library screen at single concentrations

Protein sequences, listed by entry. Tags and fused reporters are not part of them. Residues count along the entry.
UniProt Q8IDJ8, 1-583: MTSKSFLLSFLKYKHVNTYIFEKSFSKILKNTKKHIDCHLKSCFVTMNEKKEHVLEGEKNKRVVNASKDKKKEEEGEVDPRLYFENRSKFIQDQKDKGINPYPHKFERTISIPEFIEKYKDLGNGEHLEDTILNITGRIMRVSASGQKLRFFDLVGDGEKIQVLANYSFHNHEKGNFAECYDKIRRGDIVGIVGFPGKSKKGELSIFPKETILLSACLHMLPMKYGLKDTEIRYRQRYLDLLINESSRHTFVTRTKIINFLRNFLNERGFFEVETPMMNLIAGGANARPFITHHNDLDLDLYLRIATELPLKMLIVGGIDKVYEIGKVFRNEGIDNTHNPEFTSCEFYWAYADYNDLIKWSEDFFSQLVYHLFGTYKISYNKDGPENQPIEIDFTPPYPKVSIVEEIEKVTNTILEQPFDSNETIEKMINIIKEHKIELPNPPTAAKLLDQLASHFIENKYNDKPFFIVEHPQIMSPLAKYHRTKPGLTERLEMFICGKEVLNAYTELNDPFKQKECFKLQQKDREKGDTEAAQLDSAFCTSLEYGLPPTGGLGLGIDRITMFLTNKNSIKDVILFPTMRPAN

T. brucei: 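Whole-parasite assay of Trypanosoma brucei over 72 hours; the read-out is not stated. Tested at 30 µM. Higher reads as stronger inhibition (inferred: compounds with an IC50 in retests scored well above the rest). Values scatter widely below zero; nearly all retest evidence comes from the higher of the two concentrations used. Size under these conditions: about 64,000 compounds, about 940 of them at 50% or above in at least one test.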
PfKRS1: 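Lysine-tRNA ligase, Plasmodium falciparum 3D7 (UniProt Q8IDJ8). Enzyme assay of the cytosolic lysyl-tRNA synthetase in 384-well plates, read by luminescence. Concentration: 30 µM. Higher reads as stronger inhibition, judged from the few compounds that gave an IC50. About 69,000 compounds were tested under these conditions; 0.071% (about 49) showed 50% or more at least once.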

Each number is a percent effect as filed.
The controls that fix the scale are not given in the record; negative values are as filed.
Compounds were drawn at random from those tested, without regard to their results.
A dash means the value is not listed here; it may have been measured.

structure | T. brucei | PfKRS1
CCC(CC)CNCC1(S(C)(=O)=O)CCOCC1 | -18.06 | 9.47
N#Cc1ccc(CN2CCC(c3ccnn3CCO)CC2)cc1 | 31.44 | 4.716
Cc1cc(C)c(CNC(=O)c2ccc3c(c2)CCC3)c(=O)[nH]1 | -4.278 | 0.6195
Cn1ccnc1NC[C@@H]1CCC[C@@H]2CN(CC3CC3)C[C@@H]21 | - | 9.692
Cc1ccc(CN(C(=O)NCC2CCS(=O)(=O)C2)C2CC2)o1 (stereo not shown) | 1.378 | 4.406
Cc1nc(CNC2CCCN(c3cccnn3)C2)no1 (stereo not shown) | -43.19 | -1.216
Cc1cnn(CC(C)NCc2nc(-c3ccccn3)no2)c1 (stereo not shown) | -19.04 | 3.429
c1ncn(CC2CN(Cc3nc(C4CC4)no3)CCO2)n1 (stereo not shown) | -50.26 | -1.793
O=C(O)C(F)(F)F.[H][C@@]12OCCN(C(=O)c3ccc(C)o3)[C@@]1([H])CC[C@H]2OCc1ccccn1 | -103.8 | -
CNC(=O)c1cccnc1N1CCC(Oc2ccc(F)cc2)CC1 | -18.43 | 0.4466
Cc1cc(N2CCC3(CCCN(CCO)C3=O)C2)nc2ccccc12 (stereo not shown) | -20.15 | 2.008
CN(C)CCOCC1CN(Cc2ccsc2)Cc2ccnn2C1.O=C(O)C(F)(F)F.O=C(O)C(F)(F)F.O=C(O)C(F)(F)F (stereo not shown) | 2.643 | -
[H][C@]12CC[C@]([H])(CN(Cc3cccnc3)C1)N(C(=O)CSCCC)C2 | -46.66 | -
CNC(=O)C1CN(C(C)C)CCN1c1ncccn1 (stereo not shown) | -13.99 | -0.2313
CN(Cc1cn2c(n1)CN(C1CCOC1)CC2)Cc1ccco1.O=C(O)C(F)(F)F.O=C(O)C(F)(F)F (stereo not shown) | -5.684 | -
O=C(NS(=O)(=O)c1cnn(-c2ccccc2F)c1)c1ccco1 | -43.2 | 3.866
CN(C)c1ncnc2c1CCN(Cc1nccs1)CC2 | - | 7.483
CS(=O)(=O)NCc1cnc2n1CCN(Cc1ccco1)CC2 | - | 1.145
N#Cc1ccc(N2CCCC3(CCC(=O)N3CC3CC3)CC2)nc1.O=C(O)C(F)(F)F (stereo not shown) | -13.62 | -
CN(CCC(=O)N1CCc2sccc2C1)Cc1ccc2c(c1)OCCO2 | 14.92 | 0.3234
CC(=O)NCc1ccc(C(=O)N2CCCC2c2cnn(C)c2)s1 (stereo not shown) | - | -0.166
CS(=O)(=O)NCc1cc(-c2cc(F)cc(F)c2)nc(N2CCCC2)n1 | 4.967 | 3.024
CCc1nnc(CN2CC(n3cccn3)C2)o1 | -30.79 | 3.195
CC(C)N1CCC(NCc2cccnc2N(C)C)CC1 | 31.75 | 5.628
CCc1ccc(C2CC(=O)Nc3c2c(=O)n(C)c2ncnn32)cc1 (stereo not shown) | - | 5.275
CCCN(CC1COc2ccccc2O1)C(=O)c1ncoc1CC (stereo not shown) | -55.45 | 1.347
Cc1ccc(O)c(CNC2CCc3nc(C(C)C)nn3C2)n1 (stereo not shown) | 24.35 | 4.144
COCC(=O)NCc1cc(=O)n2c(n1)CN(Cc1cccs1)CCC2 | -75.33 | 0.9961
Cc1noc(CCCC(=O)NC(C)c2ccccn2)n1 (stereo not shown) | -24.18 | 2.025
[H][C@]12CC[C@]([H])(CN(Cc3cccc(C(=O)Nc4c(C)nn(C)c4C)c3)C1)N2 | 0.2288 | -
CCN(CC)C(=O)c1ccc(-n2ncc(C#N)c2N)cc1 | - | -1.192
N#CCCN(CC1CCOC1)Cn1ccc(-c2cccs2)n1 (stereo not shown) | -60.02 | -1.723
COc1ccc2ncn(Cc3ncc[nH]3)c(=O)c2c1 | -25.14 | 2.762
CN(C)S(=O)(=O)N1CC[C@]2(O)CCN(CCc3cccc(F)c3)C[C@@H]2C1 | - | 5.535
COc1ccc(-c2nnc([C@H]3CCN(CC(C)(C)C)C3)o2)cc1 | 30.2 | 4.035
COc1ccccc1-c1csc(NC(=O)N2CCN(C)CC2C)n1 (stereo not shown) | 3.656 | 0.2251
CCn1ccnc1CN1CCN(Cc2cccnc2)CC1C (stereo not shown) | -24.52 | 4.596
CCN(C)c1ncnc2c1CCN(C(=O)N(C)C)CC2.O=C(O)C(F)(F)F | -37.84 | -
CN(CC(=O)N(C)C1CCCCC1)C1CCc2ccccc21 (stereo not shown) | -48.19 | -7.41
Cc1ccc(CN2CCCC(c3nn(C)c4nccnc34)C2)s1 (stereo not shown) | -26.34 | -0.8842
Cc1ccc(NC2CCN(C(=O)c3cc(C)sc3C)CC2)nn1 | 16.07 | -0.1945
O=C(CCCc1ccc(Cl)cc1)N1CCN(C(=O)c2ccc[nH]2)CC1 | -25.58 | 2.012
O=C(O)C(F)(F)F.[H][C@@]12CCN(Cc3ccc(C)s3)C[C@]1([H])[C@H](c1nc(C)no1)CCO2 | 1.711 | -
Cc1nn(C)c(C)c1C(=O)N1CCN(C(=O)CC2CCCCC2)CC1 | -52.62 | -1.475
CCN(CC)S(=O)(=O)CCNC(=O)c1cc2cccc(F)c2o1 | -38.59 | 3.607
CC(=O)Nc1ncc(S(=O)(=O)Nc2cccc(O)c2)s1 | -19.88 | 3.571
[H][C@]12CCN(Cc3ccc4c(c3)OCO4)[C@@]1([H])CCN2CCN(C)C | 7.409 | -
Cc1nnc(NC(=O)NCc2ccc(OC(C)C)nc2)s1 | - | -0.04149

Some entries from above, unchanged:

structure,T. brucei,PfKRS1
CS(=O)(=O)NCc1cc(-c2cc(F)cc(F)c2)nc(N2CCCC2)n1,4.967,3.024
COc1ccc(-c2nnc([C@H]3CCN(CC(C)(C)C)C3)o2)cc1,30.2,4.035
CN(C)S(=O)(=O)N1CC[C@]2(O)CCN(CCc3cccc(F)c3)C[C@@H]2C1,-,5.535

Data taken from ChEMBL document CHEMBL3988442, “University of Dundee, Small-Polar-MMV Screening Library” (2021).